According to the supplement of paper PMC10849652:
The other results are listed elsewhere or left out.

The chains behind the UniProt entries cited, without tags or fusion partners. Where a name states a change or a piece, a line headed by the entry shows the natural chain unless it says otherwise.
UniProt P53992: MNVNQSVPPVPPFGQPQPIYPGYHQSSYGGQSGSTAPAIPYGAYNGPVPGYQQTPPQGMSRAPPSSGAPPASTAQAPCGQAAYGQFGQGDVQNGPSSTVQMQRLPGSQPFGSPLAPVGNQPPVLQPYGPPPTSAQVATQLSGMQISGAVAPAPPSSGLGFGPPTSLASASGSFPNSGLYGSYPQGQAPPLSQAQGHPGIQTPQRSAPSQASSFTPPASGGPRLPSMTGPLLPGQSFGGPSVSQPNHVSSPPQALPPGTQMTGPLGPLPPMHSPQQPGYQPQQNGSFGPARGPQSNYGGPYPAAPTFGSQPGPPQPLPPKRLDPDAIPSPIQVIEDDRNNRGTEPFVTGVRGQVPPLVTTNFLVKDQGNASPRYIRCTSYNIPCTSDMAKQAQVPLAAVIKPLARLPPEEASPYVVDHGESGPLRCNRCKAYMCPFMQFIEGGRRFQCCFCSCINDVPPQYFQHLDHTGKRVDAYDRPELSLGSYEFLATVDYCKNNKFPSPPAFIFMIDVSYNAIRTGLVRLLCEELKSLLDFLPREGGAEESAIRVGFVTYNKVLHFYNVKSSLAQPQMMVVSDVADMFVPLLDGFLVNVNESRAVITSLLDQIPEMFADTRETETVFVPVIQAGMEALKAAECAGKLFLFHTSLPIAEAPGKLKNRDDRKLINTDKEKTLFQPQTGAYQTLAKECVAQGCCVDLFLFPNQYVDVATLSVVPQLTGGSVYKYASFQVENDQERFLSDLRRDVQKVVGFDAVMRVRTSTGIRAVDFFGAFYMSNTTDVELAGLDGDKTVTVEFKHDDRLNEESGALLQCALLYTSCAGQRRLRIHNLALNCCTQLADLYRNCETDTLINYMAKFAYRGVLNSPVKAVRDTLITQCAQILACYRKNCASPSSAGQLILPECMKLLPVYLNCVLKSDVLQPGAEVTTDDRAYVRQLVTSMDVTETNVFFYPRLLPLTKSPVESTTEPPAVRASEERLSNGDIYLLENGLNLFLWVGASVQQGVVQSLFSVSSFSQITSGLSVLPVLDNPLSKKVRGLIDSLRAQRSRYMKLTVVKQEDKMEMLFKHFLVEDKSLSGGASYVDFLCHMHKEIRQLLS
UniProt Q14141: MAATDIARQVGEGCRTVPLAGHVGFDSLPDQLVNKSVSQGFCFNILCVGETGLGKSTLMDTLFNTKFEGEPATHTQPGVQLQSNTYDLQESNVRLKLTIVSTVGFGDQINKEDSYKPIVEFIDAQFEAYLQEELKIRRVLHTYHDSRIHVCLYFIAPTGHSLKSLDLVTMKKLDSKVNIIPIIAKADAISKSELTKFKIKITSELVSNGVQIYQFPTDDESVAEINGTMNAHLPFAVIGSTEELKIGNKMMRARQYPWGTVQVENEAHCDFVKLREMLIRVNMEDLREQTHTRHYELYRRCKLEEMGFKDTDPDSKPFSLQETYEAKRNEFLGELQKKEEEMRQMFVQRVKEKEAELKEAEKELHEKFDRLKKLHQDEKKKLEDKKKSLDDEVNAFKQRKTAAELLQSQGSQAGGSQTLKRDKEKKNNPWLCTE
UniProt Q6UVJ0: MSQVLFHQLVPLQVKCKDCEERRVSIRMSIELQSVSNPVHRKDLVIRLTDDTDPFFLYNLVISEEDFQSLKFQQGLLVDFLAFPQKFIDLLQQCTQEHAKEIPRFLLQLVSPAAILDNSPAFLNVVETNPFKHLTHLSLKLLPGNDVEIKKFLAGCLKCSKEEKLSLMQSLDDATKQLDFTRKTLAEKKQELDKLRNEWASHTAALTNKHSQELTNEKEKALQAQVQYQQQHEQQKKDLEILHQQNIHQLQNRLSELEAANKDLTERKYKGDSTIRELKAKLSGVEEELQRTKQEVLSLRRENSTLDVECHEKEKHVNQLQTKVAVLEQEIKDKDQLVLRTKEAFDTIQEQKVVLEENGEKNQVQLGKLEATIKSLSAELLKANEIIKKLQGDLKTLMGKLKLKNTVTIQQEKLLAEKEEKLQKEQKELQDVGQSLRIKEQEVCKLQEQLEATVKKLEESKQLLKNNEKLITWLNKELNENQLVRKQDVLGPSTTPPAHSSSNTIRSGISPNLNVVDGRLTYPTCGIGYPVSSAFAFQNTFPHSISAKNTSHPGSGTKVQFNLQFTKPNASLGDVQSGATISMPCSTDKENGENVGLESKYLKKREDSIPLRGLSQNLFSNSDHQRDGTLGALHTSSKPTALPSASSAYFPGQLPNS
UniProt Q15019: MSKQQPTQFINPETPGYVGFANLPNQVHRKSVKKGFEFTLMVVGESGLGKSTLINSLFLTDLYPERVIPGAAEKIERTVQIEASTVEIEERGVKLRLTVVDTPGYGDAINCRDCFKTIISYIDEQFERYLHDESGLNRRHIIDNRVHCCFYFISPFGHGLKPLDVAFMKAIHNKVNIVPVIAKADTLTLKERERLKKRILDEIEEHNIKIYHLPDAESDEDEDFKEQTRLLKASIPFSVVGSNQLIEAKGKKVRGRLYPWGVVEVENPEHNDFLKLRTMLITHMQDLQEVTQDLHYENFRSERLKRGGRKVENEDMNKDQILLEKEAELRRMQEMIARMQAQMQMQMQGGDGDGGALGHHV
UniProt Q9Y6U3: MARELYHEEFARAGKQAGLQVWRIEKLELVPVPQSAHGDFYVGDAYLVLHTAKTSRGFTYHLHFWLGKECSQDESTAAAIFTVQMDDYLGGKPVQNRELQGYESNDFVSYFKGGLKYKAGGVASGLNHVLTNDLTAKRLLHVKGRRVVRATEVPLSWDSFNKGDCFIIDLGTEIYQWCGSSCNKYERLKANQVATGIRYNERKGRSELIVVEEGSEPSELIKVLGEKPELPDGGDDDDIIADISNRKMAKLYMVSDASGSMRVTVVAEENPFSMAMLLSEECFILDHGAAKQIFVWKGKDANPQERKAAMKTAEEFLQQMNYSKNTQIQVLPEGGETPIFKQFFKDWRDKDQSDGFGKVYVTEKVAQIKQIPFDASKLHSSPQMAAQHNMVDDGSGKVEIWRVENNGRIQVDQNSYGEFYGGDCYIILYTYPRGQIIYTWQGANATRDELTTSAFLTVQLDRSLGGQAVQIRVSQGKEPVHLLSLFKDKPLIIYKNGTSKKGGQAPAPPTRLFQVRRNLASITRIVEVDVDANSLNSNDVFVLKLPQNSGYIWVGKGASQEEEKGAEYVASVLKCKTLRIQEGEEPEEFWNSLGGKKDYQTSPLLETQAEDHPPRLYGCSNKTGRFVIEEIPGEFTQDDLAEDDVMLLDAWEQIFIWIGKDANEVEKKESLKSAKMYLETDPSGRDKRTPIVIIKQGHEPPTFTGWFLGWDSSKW
UniProt Q96NL6: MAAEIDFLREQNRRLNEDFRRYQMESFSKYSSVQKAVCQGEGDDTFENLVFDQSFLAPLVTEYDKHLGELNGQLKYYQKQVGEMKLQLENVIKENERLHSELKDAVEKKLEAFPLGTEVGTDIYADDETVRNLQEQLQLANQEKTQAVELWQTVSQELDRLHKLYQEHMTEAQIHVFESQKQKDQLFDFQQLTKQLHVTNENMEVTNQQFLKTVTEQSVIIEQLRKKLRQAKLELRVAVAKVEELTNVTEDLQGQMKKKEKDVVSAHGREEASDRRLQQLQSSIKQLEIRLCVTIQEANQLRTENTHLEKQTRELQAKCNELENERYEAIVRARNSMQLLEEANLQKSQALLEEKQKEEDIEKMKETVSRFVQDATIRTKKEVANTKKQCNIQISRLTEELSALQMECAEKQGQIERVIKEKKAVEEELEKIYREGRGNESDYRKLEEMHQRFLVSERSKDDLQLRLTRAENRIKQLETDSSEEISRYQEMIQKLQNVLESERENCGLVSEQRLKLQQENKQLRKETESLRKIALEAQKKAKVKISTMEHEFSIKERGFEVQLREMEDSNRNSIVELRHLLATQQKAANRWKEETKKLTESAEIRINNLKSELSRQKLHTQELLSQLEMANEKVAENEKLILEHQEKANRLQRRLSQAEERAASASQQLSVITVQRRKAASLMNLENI
UniProt Q99643: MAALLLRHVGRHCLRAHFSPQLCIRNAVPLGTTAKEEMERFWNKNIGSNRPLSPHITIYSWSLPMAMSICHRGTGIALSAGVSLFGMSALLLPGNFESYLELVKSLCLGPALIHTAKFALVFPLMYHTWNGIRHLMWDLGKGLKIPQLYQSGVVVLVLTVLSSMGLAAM
UniProt Q9HB40: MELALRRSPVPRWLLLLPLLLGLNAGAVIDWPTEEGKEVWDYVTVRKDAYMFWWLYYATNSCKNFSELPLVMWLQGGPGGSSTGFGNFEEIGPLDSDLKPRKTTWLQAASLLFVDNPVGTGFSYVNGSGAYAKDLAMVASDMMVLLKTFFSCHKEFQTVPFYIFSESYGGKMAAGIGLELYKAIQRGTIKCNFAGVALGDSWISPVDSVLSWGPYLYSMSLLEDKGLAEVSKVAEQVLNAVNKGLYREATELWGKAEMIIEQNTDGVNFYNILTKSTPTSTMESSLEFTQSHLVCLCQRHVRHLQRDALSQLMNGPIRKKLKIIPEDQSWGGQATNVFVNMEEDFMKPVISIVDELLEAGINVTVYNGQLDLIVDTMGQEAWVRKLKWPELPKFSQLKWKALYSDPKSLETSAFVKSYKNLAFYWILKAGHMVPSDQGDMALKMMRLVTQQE
UniProt Q9Y512: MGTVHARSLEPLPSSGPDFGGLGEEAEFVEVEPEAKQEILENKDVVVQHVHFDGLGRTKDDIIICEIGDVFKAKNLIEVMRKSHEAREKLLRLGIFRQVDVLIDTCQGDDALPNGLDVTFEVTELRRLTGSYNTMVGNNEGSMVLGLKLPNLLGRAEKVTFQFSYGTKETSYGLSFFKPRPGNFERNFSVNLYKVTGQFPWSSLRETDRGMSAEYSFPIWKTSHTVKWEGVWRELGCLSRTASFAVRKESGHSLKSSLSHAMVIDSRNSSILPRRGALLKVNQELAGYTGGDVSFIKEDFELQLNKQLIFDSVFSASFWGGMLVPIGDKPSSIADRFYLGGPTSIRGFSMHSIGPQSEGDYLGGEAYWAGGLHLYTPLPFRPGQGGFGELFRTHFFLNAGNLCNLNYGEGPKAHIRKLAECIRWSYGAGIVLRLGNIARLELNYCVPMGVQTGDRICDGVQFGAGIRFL
UniProt O95969: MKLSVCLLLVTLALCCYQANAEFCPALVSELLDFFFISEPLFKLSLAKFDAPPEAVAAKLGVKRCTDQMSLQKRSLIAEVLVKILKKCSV
UniProt P21912: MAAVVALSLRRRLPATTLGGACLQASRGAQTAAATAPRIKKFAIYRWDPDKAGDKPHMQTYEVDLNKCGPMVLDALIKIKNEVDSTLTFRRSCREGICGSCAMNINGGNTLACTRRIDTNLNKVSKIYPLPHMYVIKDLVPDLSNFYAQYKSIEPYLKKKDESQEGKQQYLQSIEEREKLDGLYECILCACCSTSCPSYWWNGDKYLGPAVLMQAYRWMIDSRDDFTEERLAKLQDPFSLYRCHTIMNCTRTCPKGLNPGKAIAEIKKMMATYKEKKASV
UniProt P31040: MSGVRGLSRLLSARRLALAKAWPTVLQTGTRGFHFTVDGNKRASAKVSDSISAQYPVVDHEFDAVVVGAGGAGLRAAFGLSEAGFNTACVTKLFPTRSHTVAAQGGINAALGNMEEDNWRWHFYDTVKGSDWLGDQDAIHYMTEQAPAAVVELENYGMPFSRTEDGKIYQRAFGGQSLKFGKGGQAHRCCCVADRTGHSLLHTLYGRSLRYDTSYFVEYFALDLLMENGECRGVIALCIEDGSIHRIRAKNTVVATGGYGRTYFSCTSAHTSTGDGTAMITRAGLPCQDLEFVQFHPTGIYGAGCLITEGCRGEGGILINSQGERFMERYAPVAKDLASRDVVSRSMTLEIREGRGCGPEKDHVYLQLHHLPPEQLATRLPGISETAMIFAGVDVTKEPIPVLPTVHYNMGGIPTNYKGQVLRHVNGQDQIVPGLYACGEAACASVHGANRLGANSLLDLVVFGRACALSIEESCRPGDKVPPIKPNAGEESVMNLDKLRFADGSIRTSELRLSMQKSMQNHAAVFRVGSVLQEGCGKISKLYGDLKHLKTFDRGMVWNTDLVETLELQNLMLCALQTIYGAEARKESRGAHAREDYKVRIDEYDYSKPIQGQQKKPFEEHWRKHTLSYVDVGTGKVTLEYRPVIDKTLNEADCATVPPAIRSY

Experiments:
Assay in all cases: log2 fold change, soluble protein after heating vs DMSO (PISA); higher = thermal stabilisation; K562 lysate, 10 uM; active = over 0.2 and 3.5 SD of the protein, either way, in both replicates (recomputed)
lapatinib = compound: CS(=O)(=O)CCNCc1ccc(-c2ccc3ncnc(Nc4ccc(OCc5cccc(F)c5)c(Cl)c4)c3c2)o1 [lapatinib]
Outline: (§1)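 Pellets of K562 cells were dounce-homogenised in PBS pH 7.4 with 1 mM MgCl2, and the crude extract was held at 1 mg/mL protein for a 30 min treatment with 10 μM compound. Aliquots were heated for 3 min over 48°C-58°C and pooled before NP-40 was added to 0.5% at 4°C. The supernatant from 21,000xg for 90 min was quantified by TMTpro 16plex LC-MS/MS with channel sums equalised. Values are reported from duplicates as log-two fold change in thermal stability relative to solvent controls.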

pictilisib = compound: CS(=O)(=O)N1CCN(Cc2cc3nc(-c4cccc5[nH]ncc45)nc(N4CCOCC4)c3s2)CC1 [pictilisib]
Outline: as §1

crizotinib = compound: C[C@@H](Oc1cc(-c2cnn(C3CCNCC3)c2)cnc1N)c1c(Cl)ccc(F)c1Cl [crizotinib]
Outline: as §1

[1] = compound: C[C@H](C1=CC=C(C=C1)C(=O)NC2=C3C=CNC3=NC=C2)N
Outline: as §1

duvelisib = compound: C[C@H](Nc1ncnc2nc[nH]c12)c1cc2cccc(Cl)c2c(=O)n1-c1ccccc1 [duvelisib]
Outline: as §1

gandotinib = compound: Cc1cc(Nc2cc(CN3CCOCC3)c3nc(C)c(Cc4ccc(Cl)cc4F)n3n2)n[nH]1 [gandotinib]
Outline: as §1

tozasertib = compound: Cc1cc(Nc2cc(N3CCN(C)CC3)nc(Sc3ccc(NC(=O)C4CC4)cc3)n2)n[nH]1 [tozasertib]
Outline: as §1

doramapimod = compound: Cc1ccc(-n2nc(C(C)(C)C)cc2NC(=O)Nc2ccc(OCCN3CCOCC3)c3ccccc23)cc1 [doramapimod]
Outline: as §1

bafetinib = compound: Cc1ccc(NC(=O)c2ccc(CN3CC[C@H](N(C)C)C3)c(C(F)(F)F)c2)cc1Nc1nccc(-c2cncnc2)n1 [bafetinib]
Outline: as §1

[2] = compound: Cc1cccc(CC(=O)N2CCc3c2ccc(-c2cn(C)c4ncnc(N)c24)c3F)n1
Outline: as §1

nilotinib = compound: Cc1cn(-c2cc(NC(=O)c3ccc(C)c(Nc4nccc(-c5cccnc5)n4)c3)cc(C(F)(F)F)c2)cn1 [nilotinib]
Outline: as §1

[3] = compound: Cc1nc(Nc2n[nH]c3c2CN(C(=O)N[C@H](CN(C)C)c2ccccc2)C3(C)C)c2sccc2n1
Outline: as §1

dasatinib = compound: Cc1nc(Nc2ncc(C(=O)Nc3c(C)cccc3Cl)s2)cc(N2CCN(CCO)CC2)n1 [dasatinib]
Outline: as §1

[4] = compound: Cc1ncc(-c2ccnc(Nc3ccc(S(C)(=O)=O)cc3)n2)n1C(C)C
Outline: as §1

[5] = compound: Cn1cc(-c2ccc3c(c2)CCN3C(=O)Cc2cccc(C(F)(F)F)c2)c2c(N)ncnc21
Outline: as §1

quisinostat = compound: Cn1cc(CNCC2CCN(c3ncc(C(=O)NO)cn3)CC2)c2ccccc21 [quisinostat]
Outline: as §1

tipifarnib = compound: Cn1cncc1[C@@](N)(c1ccc(Cl)cc1)c1ccc2c(c1)c(-c1cccc(Cl)c1)cc(=O)n2C [tipifarnib]
Outline: as §1

[6] = compound: NC(=O)Nc1cc(-c2cccc(F)c2)sc1C(=O)N[C@H]1CCCNC1
Outline: as §1

[7] = compound: NC(=O)c1cnc(N[C@@H]2CCCC[C@@H]2N)nc1Nc1cccc(-n2nccn2)c1
Outline: as §1

[8] = compound: NC1(c2ccc(-c3nc4ccn5c(=O)[nH]nc5c4cc3-c3ccccc3)cc2)CCC1
Outline: as §1

Measured: log2 fold change

SEC24C (UniProt P53992)
inactive: lapatinib -0.01 | pictilisib -0.033 | crizotinib -0.014 | [1] -0.014 | duvelisib -0.003 | gandotinib -0.006 | tozasertib -0.014 | doramapimod 0.022 | bafetinib 0.002 | [2] -0.004 | nilotinib 0.034 | [3] 0.011 | dasatinib -0.012 | [4] 0.006 | [5] -0.014 | quisinostat 0.016 | tipifarnib 0.028 | [6] 0.012 | [7] -0.008 | [8] 0.011

SEPTIN6 (UniProt Q14141)
inactive: lapatinib -0.009 | pictilisib -0.026 | crizotinib -0.026 | [1] -0.013 | duvelisib 0.014 | gandotinib -0.03 | tozasertib -0.011 | doramapimod 0.001 | bafetinib -0.004 | [2] -0.046 | nilotinib 0.033 | [3] -0.036 | dasatinib 0.038 | [4] 0.058 | [5] -0.002 | quisinostat -0.113 | tipifarnib 0.071 | [6] 0.043 | [7] 0.002 | [8] 0.04

SASS6 (UniProt Q6UVJ0)
inactive: lapatinib 0.001 | pictilisib -0.056 | crizotinib -0.01 | [1] 0.099 | duvelisib -0.018 | gandotinib -0.076 | tozasertib 0.004 | doramapimod -0.01 | bafetinib -0.032 | [2] -0.054 | nilotinib -0.032 | [3] 0.01 | dasatinib -0.083 | [4] 0.017 | [5] 0.008 | quisinostat -0.045 | tipifarnib -0.03 | [6] 0.03 | [7] 0.044 | [8] 0.003

SEPTIN2 isoform 2 (UniProt Q15019)
inactive: lapatinib -0.016 | pictilisib 0 | crizotinib -0.026 | [1] -0.004 | duvelisib 0.013 | gandotinib 0.02 | tozasertib -0.019 | doramapimod 0.024 | bafetinib 0.042 | [2] -0.019 | nilotinib 0.011 | [3] -0.022 | dasatinib 0.018 | [4] -0.005 | [5] -0.002 | quisinostat -0.071 | tipifarnib 0.023 | [6] 0.013 | [7] -0.011 | [8] 0

SEC16A isoform 5 (UniProt O15027)
inactive: lapatinib -0.019 | pictilisib -0.044 | crizotinib 0.018 | [1] -0.039 | duvelisib -0.013 | gandotinib -0.014 | tozasertib -0.001 | doramapimod -0.002 | bafetinib 0.031 | [2] 0.029 | nilotinib -0.119 | [3] 0.008 | dasatinib -0.007 | [4] 0.006 | [5] -0.002 | quisinostat -0.054 | tipifarnib -0.036 | [6] 0.032 | [7] 0.004 | [8] -0.011

SCIN (UniProt Q9Y6U3)
inactive: lapatinib 0.033 | pictilisib -0.013 | crizotinib -0.003 | [1] 0.004 | duvelisib -0.009 | gandotinib -0.028 | tozasertib 0.011 | doramapimod -0.012 | bafetinib -0.022 | [2] 0.048 | nilotinib 0.042 | [3] -0.002 | dasatinib -0.015 | [4] 0.029 | [5] 0.021 | quisinostat 0.015 | tipifarnib 0.032 | [6] -0.011 | [7] -0.017 | [8] 0.009

SCLT1 (UniProt Q96NL6)
inactive: lapatinib -0.032 | pictilisib -0.04 | crizotinib -0.07 | [1] 0.039 | duvelisib 0.035 | gandotinib -0.025 | tozasertib 0.102 | doramapimod 0.018 | bafetinib -0.106 | [2] 0.076 | nilotinib 0.016 | [3] -0.043 | dasatinib -0.035 | [4] 0.049 | [5] -0.061 | quisinostat -0.197 | tipifarnib -0.041 | [6] 0.035 | [7] -0.034 | [8] -0.063

SDHC (UniProt Q99643)
inactive: lapatinib 0.002 | pictilisib 0.071 | crizotinib 0.032 | [1] -0.244 | duvelisib 0.004 | gandotinib 0.179 | tozasertib -0.067 | doramapimod 0.016 | bafetinib -0.004 | [2] 0.133 | nilotinib -0.009 | [3] 0.056 | dasatinib -0.001 | [4] -0.006 | [5] -0.015 | quisinostat 0 | tipifarnib -0.068 | [6] -0.057 | [7] -0.016 | [8] 0.028

SCPEP1 (UniProt Q9HB40)
inactive: lapatinib 0.011 | pictilisib -0.008 | crizotinib -0.035 | [1] 0.062 | duvelisib -0.009 | gandotinib -0.01 | tozasertib 0.063 | doramapimod -0.018 | bafetinib -0.058 | [2] -0.064 | nilotinib 0.103 | [3] 0.085 | dasatinib -0.014 | [4] -0.012 | [5] 0.124 | quisinostat 0.024 | tipifarnib -0.018 | [6] 0.096 | [7] -0.018 | [8] -0.047

SAMM50 (UniProt Q9Y512)
inactive: lapatinib 0.009 | pictilisib -0.007 | crizotinib -0.021 | [1] 0.068 | duvelisib -0.015 | gandotinib -0.008 | tozasertib -0.008 | doramapimod 0.011 | bafetinib -0.018 | [2] -0.016 | nilotinib -0.004 | [3] 0.007 | dasatinib 0.03 | [4] 0.011 | [5] -0.01 | quisinostat 0.016 | tipifarnib -0.031 | [6] -0.019 | [7] -0.004 | [8] -0.021

SEPTIN5 (UniProt G3XAH0)
inactive: lapatinib -0.013 | pictilisib -0.079 | crizotinib -0.019 | [1] -0.059 | duvelisib -0.017 | gandotinib 0.027 | tozasertib 0.011 | doramapimod 0.019 | bafetinib 0.028 | [2] 0.055 | nilotinib 0.037 | [3] 0.011 | dasatinib -0.006 | [4] 0.008 | [5] 0.006 | quisinostat 0.056 | tipifarnib 0.062 | [6] -0.031 | [7] 0 | [8] -0.011

SCGB1D2 (UniProt O95969)
inactive: lapatinib 0.129 | pictilisib 0.358 | crizotinib -0.344 | [1] 0.57 | duvelisib -0.031 | gandotinib -0.325 | tozasertib 0.81 | doramapimod 0.084 | bafetinib 0.267 | [2] 0.319 | nilotinib 0.056 | [3] 0.21 | dasatinib 0.207 | [4] -0.097 | [5] 0.293 | quisinostat 0.203 | tipifarnib -0.357 | [6] -0.43 | [7] 0.369 | [8] 0.211

SECISBP2 (UniProt Q96T21)
inactive: lapatinib -0.191 | pictilisib -0.075 | crizotinib -0.044 | [1] -0.163 | duvelisib 0.044 | gandotinib 0.139 | tozasertib -0.071 | doramapimod -0.164 | bafetinib -0.173 | [2] -0.363 | nilotinib 0.115 | [3] 0.058 | dasatinib -0.072 | [4] -0.097 | [5] -0.028 | quisinostat -0.076 | tipifarnib -0.065 | [6] 0.218 | [7] 0.213

SDHB (UniProt P21912)
inactive: lapatinib 0.039 | pictilisib 0.003 | crizotinib 0.007 | [1] -0.043 | duvelisib -0.016 | gandotinib 0.015 | tozasertib 0.024 | doramapimod -0.004 | bafetinib 0.069 | [2] 0.014 | nilotinib 0.061 | [3] -0.02 | dasatinib 0.012 | [4] -0.003 | [5] 0.005 | quisinostat 0.031 | tipifarnib 0.014 | [6] -0.01 | [7] -0.005 | [8] -0.001

SCAP (UniProt Q12770)
inactive: lapatinib 0.009 | pictilisib -0.017 | crizotinib -0.046 | [1] 0.013 | duvelisib 0.07 | gandotinib -0.041 | tozasertib 0.066 | doramapimod -0.003 | bafetinib 0.119 | [2] 0.033 | nilotinib 0.042 | [3] 0.012 | dasatinib -0.079 | [4] 0.007 | [5] 0.033 | quisinostat 0.029 | tipifarnib -0.088 | [6] 0.013 | [7] 0.099 | [8] 0.178

SDHA (UniProt P31040)
inactive: lapatinib 0.004 | pictilisib -0.011 | crizotinib -0.008 | [1] -0.004 | duvelisib 0.013 | gandotinib 0.03 | tozasertib 0.006 | doramapimod 0.024 | bafetinib 0.026 | [2] -0.017 | nilotinib 0.035 | [3] 0.009 | dasatinib 0.016 | [4] 0.004 | [5] -0.033 | quisinostat -0.022 | tipifarnib -0.034 | [6] -0.037 | [7] -0.013 | [8] 0.007

2 successive records from above, for reference:
SECISBP2 (UniProt Q96T21)
inactive: lapatinib -0.191 | pictilisib -0.075 | crizotinib -0.044 | [1] -0.163 | duvelisib 0.044 | gandotinib 0.139 | tozasertib -0.071 | doramapimod -0.164 | bafetinib -0.173 | [2] -0.363 | nilotinib 0.115 | [3] 0.058 | dasatinib -0.072 | [4] -0.097 | [5] -0.028 | quisinostat -0.076 | tipifarnib -0.065 | [6] 0.218 | [7] 0.213

SDHB (UniProt P21912)
inactive: lapatinib 0.039 | pictilisib 0.003 | crizotinib 0.007 | [1] -0.043 | duvelisib -0.016 | gandotinib 0.015 | tozasertib 0.024 | doramapimod -0.004 | bafetinib 0.069 | [2] 0.014 | nilotinib 0.061 | [3] -0.02 | dasatinib 0.012 | [4] -0.003 | [5] 0.005 | quisinostat 0.031 | tipifarnib 0.014 | [6] -0.01 | [7] -0.005 | [8] -0.001
